Results from publication PMC3828145.
No constants are given. Whether binding was seen depends on the method and setting. Binding seen in cells or lysates may run through a third protein. These calls come from enrichment with a bait or labelling near it, and not all partners need be listed. For some assays here: No binding means not detected with the bait. Tags and fused reporters may be left off the sequences shown.

Amino acid sequences for entries named in this document (tags omitted).
UniProt P53552: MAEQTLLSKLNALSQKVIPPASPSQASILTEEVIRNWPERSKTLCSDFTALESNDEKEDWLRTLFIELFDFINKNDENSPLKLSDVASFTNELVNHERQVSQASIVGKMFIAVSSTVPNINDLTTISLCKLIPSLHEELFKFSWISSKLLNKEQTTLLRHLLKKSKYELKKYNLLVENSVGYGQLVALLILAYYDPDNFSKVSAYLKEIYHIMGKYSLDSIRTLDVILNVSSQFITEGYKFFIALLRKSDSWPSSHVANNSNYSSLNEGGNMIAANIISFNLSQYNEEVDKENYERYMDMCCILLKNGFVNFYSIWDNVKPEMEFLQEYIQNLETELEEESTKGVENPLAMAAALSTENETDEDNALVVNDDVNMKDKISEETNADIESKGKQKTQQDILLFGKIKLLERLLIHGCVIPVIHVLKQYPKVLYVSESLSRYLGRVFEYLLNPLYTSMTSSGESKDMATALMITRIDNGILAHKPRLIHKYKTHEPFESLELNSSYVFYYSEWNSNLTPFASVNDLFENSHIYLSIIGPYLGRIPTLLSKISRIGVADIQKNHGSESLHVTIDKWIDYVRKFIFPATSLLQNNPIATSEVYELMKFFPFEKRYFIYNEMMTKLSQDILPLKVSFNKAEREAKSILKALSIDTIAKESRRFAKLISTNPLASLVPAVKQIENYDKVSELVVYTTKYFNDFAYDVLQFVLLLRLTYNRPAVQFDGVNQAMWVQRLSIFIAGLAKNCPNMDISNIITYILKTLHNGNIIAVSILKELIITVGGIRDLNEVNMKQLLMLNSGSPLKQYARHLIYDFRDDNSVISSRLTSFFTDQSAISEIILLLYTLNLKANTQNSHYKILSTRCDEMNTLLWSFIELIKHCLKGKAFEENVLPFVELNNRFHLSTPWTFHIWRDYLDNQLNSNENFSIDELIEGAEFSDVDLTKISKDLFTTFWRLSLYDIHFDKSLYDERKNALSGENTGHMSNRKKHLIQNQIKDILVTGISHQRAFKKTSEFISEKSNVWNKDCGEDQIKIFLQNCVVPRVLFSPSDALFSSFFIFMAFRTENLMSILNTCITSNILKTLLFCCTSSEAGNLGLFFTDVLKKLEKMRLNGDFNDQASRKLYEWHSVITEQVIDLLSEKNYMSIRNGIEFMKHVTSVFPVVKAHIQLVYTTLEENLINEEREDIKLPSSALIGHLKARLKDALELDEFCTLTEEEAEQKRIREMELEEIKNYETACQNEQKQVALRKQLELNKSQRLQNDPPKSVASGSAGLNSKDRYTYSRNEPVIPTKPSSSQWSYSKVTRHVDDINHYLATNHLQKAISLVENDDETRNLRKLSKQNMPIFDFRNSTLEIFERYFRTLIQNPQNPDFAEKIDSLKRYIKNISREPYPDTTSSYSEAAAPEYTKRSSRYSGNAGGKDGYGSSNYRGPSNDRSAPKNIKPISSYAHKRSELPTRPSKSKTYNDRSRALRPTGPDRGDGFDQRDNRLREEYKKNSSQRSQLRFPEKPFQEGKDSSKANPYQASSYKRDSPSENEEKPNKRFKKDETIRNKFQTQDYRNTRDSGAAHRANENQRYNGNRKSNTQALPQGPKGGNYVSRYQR

T1: Hpr1-TAP (C-terminally TAP-tagged Hpr1) (S. cerevisiae) (UniProt P17629)
T1 sequence: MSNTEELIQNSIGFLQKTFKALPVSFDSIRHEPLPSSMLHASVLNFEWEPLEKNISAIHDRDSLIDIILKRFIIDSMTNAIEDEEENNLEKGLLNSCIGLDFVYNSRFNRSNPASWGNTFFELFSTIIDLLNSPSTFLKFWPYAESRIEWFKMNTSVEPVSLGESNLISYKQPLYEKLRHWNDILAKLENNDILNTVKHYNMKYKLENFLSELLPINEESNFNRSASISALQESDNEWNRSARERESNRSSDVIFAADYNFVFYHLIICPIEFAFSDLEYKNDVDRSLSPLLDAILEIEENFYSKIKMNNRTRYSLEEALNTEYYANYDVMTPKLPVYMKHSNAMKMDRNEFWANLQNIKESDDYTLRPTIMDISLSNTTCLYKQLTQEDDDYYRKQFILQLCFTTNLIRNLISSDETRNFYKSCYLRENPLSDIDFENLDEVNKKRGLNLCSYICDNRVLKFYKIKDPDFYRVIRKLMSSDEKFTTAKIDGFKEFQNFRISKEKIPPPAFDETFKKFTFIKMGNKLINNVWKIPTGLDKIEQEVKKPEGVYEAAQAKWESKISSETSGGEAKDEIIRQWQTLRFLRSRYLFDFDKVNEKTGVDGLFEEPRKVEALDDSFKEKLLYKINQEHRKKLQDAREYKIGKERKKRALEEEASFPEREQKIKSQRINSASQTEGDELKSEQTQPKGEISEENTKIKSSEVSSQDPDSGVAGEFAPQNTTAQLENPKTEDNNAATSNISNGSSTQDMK

B1: Tex1 (protein, UniProt P53851 1-422)
chain: MSTIGAVDILNQKTITSEVAASVTSKYLQSTFSKGNTSHIEDKRFIHVSSRSHSRFTSTPITPNEILSLKFHVSGSSMAYSRMDGSLTVWFIKDASFDKSVEVYIPDCCGSDKLATDLSWNPTSLNQIAVVSNSSEISLLLINEKSLTASKLRTLSLGSKTKVNTCLYDPLGNWLLAATKSEKIYLFDVKKDHSSVCSLNISDISQEDNDVVYSLAWSNGGSHIFIGFKSGYLAILKAKHGILEVCTKIKAHTGPITEIKMDPWGRNFITGSIDGNCYVWNMKSLCCELIINDLNSAVTTLDVCHLGKILGICTEDEMVYFYDLNSGNLLHSKSLANYKTDPVLKFYPDKSWYIMSGKNDTLSNHFVKNEKNLITYWKDMFDNTMIEKRRKNNGGGNNHNKRTSKNTDRIGKDRPSRFNSKK
B2: Mft1-His6 (C-terminally His6-tagged Mft1) (protein, UniProt P33441 1-392)
chain: MPLSQKQIDQVRTKVHYSEVDTPFNKYLDILGKVTKLTGSIINGTLSNDDSKIEKLTEQNISQLKESAHLRFLDLQSSIDTKKVADENWETCQQETLAKLENLKDKLPDIKSIHSKLLLRIGKLQGLYDSVQVINREVEGLSEGRTSLVVTRAEWEKELGTDLVKFLIEKNYLKLVDPGLKKDSSEERYRIYDDFSKGPKELESINASMKSDIENVRQEVSSYKEKWLRDAEIFGKITSIFKEELLKRDGLLNEAEGDNIDEDYESDEDEERKERFKRQRSMVEVNTIENVDEKEESDHEYDDQEDEENEEEDDMEVDVEDIKEDNEVDGESSQQEDNSRQGNNEETDKETGVIEEPDAVNDAEEADSDHSSRKLGGTTSDFSASSSVEEVK
B3: Thp2 (protein, UniProt O13539 1-261)
chain: MTKEEGRTYFESLCEEEQSLQESQTHLLNILDILSVLADPRSSDDLLTESLKKLPDLHRELINSSIRLRYDKYQTREAQLLEDTKTGRDVAAGVQNPKSISEYYSTFEHLNRDTLRYINLLKRLSVDLAKQVEVSDPSVTVYEMDKWVPSEKLQGILEQYCAPDTDIRGVDAQIKNYLDQIKMARAKFGLENKYSLKERLSTLTKELNHWRKEWDDIEMLMFGDDAHSMKKMIQKIDSLKSEINAPSESYPVDKEGDIVLE
B4: Sub2 (protein, UniProt Q07478 1-446)
chain: MSHEGEEDLLEYSDNEQEIQIDASKAAEAGETGAATSATEGDNNNNTAAGDKKGSYVGIHSTGFKDFLLKPELSRAIIDCGFEHPSEVQQHTIPQSIHGTDVLCQAKSGLGKTAVFVLSTLQQLDPVPGEVAVVVICNARELAYQIRNEYLRFSKYMPDVKTAVFYGGTPISKDAELLKNKDTAPHIVVATPGRLKALVREKYIDLSHVKNFVIDECDKVLEELDMRRDVQEIFRATPRDKQVMMFSATLSQEIRPICRRFLQNPLEIFVDDEAKLTLHGLQQYYIKLEEREKNRKLAQLLDDLEFNQVIIFVKSTTRANELTKLLNASNFPAITVHGHMKQEERIARYKAFKDFEKRICVSTDVFGRGIDIERINLAINYDLTNEADQYLHRVGRAGRFGTKGLAISFVSSKEDEEVLAKIQERFDVKIAEFPEEGIDPSTYLNN
B5: Gbp2 (protein, UniProt P25555 1-427)
chain: MERELGMYGNDRSRSRSPVRRRLSDDRDRYDDYNDSSSNNGNGSRRQRRDRGSRFNDRYDQSYGGSRYHDDRNWPPRRGGRGRGGSRSFRGGRGGGRGRTLGPIVERDLERQFDATKRNFENSIFVRNLTFDCTPEDLKELFGTVGEVVEADIITSKGHHRGMGTVEFTKNESVQDAISKFDGALFMDRKLMVRQDNPPPEAAKEFSKKATREEIDNGFEVFIINLPYSMNWQSLKDMFKECGHVLRADVELDFNGFSRGFGSVIYPTEDEMIRAIDTFNGMEVEGRVLEVREGRFNKRKNNDRYNQRREDLEDTRGTEPGLAQDAAVHIDETAAKFTEGVNPGGDRNCFIYCSNLPFSTARSDLFDLFGPIGKINNAELKPQENGQPTGVAVVEYENLVDADFCIQKLNNYNYGGCSLQISYARRD
B6: Hrb1 (protein, UniProt P38922 1-454)
chain: MSDQERGSENNNRSRSRSRSPVRRRMSDDHGYERDNHLSRRSGNYNGRRKFADTYRGSRDRGEYRGGRERSDYRERERFNNRDNPRSRDRYDDRRRGRDVTGRYGNRRDDYPRSFRSRHNTRDDSRRGGFGSSGARGDYGPLLARELDSTYEEKVNRNYSNSIFVGNLTYDSTPEDLTEFFSQIGKVVRADIITSRGHHRGMGTVEFTNSDDVDRAIRQYDGAFFMDRKIFVRQDNPPPSNNIKERKALDRGELRHNRKTHEVIVKNLPASVNWQALKDIFKECGNVAHADVELDGDGVSTGSGTVSFYDIKDLHRAIEKYNGYSIEGNVLDVKSKESVHNHSDGDDVDIPMDDSPVNEEARKFTENVVGGGERNRLIYCSNLPFSTAKSDLYDLFETIGKVNNAELRYDSKGAPTGIAVVEYDNVDDADVCIERLNNYNYGGCDLDISYAKRL

Target: T1, Hpr1-TAP (C-terminally TAP-tagged Hpr1) (S. cerevisiae)
Assay: affinity purification with mass spectrometry; two steps (IgG, then Ni affinity) from a strain with Hpr1-TAP and Mft1-His6 under low salt (100 mM NaCl); Coomassie stain of Ni eluates, identity of each protein verified by mass spectrometry; Western blot against Yra1

Row | Molecule | binding
1 | Tho2 (from UniProt P53552 1-1597) | binds
2 | B1 | binds
3 | B2 | binds
4 | B3 | binds
5 | B4 | binds
6 | B5 | binds
7 | B6 | binds

Target: T1, Hpr1-TAP (C-terminally TAP-tagged Hpr1) (S. cerevisiae)
Assay: affinity purification with mass spectrometry; two steps (IgG, then Ni affinity) from a strain with Hpr1-TAP and Mft1-His6 under high salt (1000 mM NaCl); Coomassie stain of Ni eluates, identity of each protein verified by mass spectrometry; Western blot against Yra1

Row | Molecule | binding
8 | Tho2 (from UniProt P53552 1-1597) | binds
9 | B1 | binds
10 | B2 | binds
11 | B3 | binds
12 | B4 | no binding (only high salt (1000 mM NaCl))
13 | B5 | no binding (only high salt (1000 mM NaCl))
14 | B6 | no binding (only high salt (1000 mM NaCl))
